# Screen size: about 300,000 compounds; about 5,400 (1.8%) were called active. This list was built around the results that the source calls inconclusive (neither active nor inactive); the mix of calls is not that of the screen. Calls come from the whole dose curve; tested in HEK293 cells. Potencies of inconclusive entries are doubtful fits and often do not repeat.
# Assay: qHTS for inhibitors of binding or entry into cells for Marburg Virus
# Conditions: Marburg virus pseudotyped entry inhibition, cell reporter; series mostly up to 37.8 µM
# Potency is the fitted concentration of half-maximal effect.
row,Compound,Potency
1,Nc1nnc(SCc2ccc(Cl)cc2)s1,inactive
2,Cc1ccc(N2CC(O)=C(c3ccccc3)C2=N)cc1,"inconclusive: 3.16 µM [activator, partial curve, poor fit]"
3,CCSc1nc(O)cc(=O)n1-c1ccc(OC)cc1,"inconclusive: 0.092 µM [inhibitor, single point]"
4,CCc1ccc2[nH]c3nc(N/N=C/c4ccc(O)cc4O)nnc3c2c1,active: 3.55 µM
5,COC(=O)c1c(C)oc(C)c1S(=O)(=O)N1CCCCC1,inactive
6,CCn1c(=O)c2cc(C(=O)N3CCN(c4cccc(Cl)c4)CC3)sc2c2ccccc21,"inconclusive: 3.55 µM [activator, single point]"
7,Cc1ccc2cc(C(c3nnnn3Cc3ccccc3)N3CCc4ccccc43)c(=O)[nH]c2c1C (stereo unspecified),"inconclusive: 23.1 µM [inhibitor, partial curve, poor fit]"
8,O=C(CCCCn1c(=O)c2ccccc2n(CC(=O)NC2CCCC2)c1=O)NC1CCCC1,inactive
9,CCCc1nc2c(C)cc(C)cc2c(N)c1CC,active: 23.1 µM
10,O=[n+]1c2c(n([O-])c3cc(Br)ccc31)CCCC2,"inconclusive: 0.447 µM [activator, full curve, poor fit]"
11,CCn1cc(CNC(=O)c2cc(-c3ccccc3OC)nc3ccccc23)c(C)n1,"inconclusive: 35.5 µM [inhibitor, single point]"
12,COCCSc1ccccc1C(=O)Nc1cc(C)cc(C)c1,"inconclusive: 16.4 µM [inhibitor, single point]"
13,CCOc1cc(S(=O)(=O)Nc2cc(C)cc(C)c2)ccc1Cl,"inconclusive: 5.8 µM [inhibitor, single point]"
14,O=C(CCN1C(=O)/C(=C/c2ccccc2)SC1=S)NCCCN1CCOCC1,"inconclusive: 7.08 µM [inhibitor, partial curve, poor fit]"
15,S=C(N/N=C/c1ccc(Cl)cc1)N1CCOCC1,inactive
16,OC(COCc1ccc(Cl)cc1)CN1CCc2ccccc2C1 (stereo unspecified),"inconclusive: 35.5 µM [activator, partial curve, poor fit]"
17,Cc1nn(-c2ccccc2)c(OC(=O)c2ccccc2F)c1S(=O)(=O)c1ccccc1,inactive
18,CC1(C(=O)NC(=S)NNC(=O)c2ccncc2)CCCCC1,"inconclusive: 1.12 µM [activator, full curve, poor fit]"
19,O=C(C1CC1)N1CCN(c2nc3ccccc3s2)CC1,inactive
20,C/C(=N\NS(=O)(=O)c1ccccc1)c1ccc2c(c1)OCCO2,"inconclusive: 0.562 µM [activator, full curve, poor fit]"
21,O=C(CN1CCCCCC1)N1c2ccccc2Sc2ccccc21,"inconclusive: 10 µM [inhibitor, single point]"
22,CCC(=O)c1ccc(O)cc1,"inconclusive: 20.6 µM [activator, single point]"
23,COC(=O)c1ccccc1Oc1c(F)c(F)nc(N2CCOCC2)c1F,"inconclusive: 11.6 µM [activator, partial curve, poor fit]"
24,C=CCNCCCOc1ccc(C(C)(C)c2ccccc2)cc1,"inconclusive: 22.4 µM [inhibitor, single point]"

# Entries above that contain an NH in an aromatic ring (2):
row,Compound,Potency
4,CCc1ccc2[nH]c3nc(N/N=C/c4ccc(O)cc4O)nnc3c2c1,active: 3.55 µM
7,Cc1ccc2cc(C(c3nnnn3Cc3ccccc3)N3CCc4ccccc43)c(=O)[nH]c2c1C (stereo unspecified),"inconclusive: 23.1 µM [inhibitor, partial curve, poor fit]"

# A different layout for two compounds above:
row | Compound | Potency
7 | Cc1ccc2cc(C(c3nnnn3Cc3ccccc3)N3CCc4ccccc43)c(=O)[nH]c2c1C (stereo unspecified) | inconclusive: 23.1 µM [inhibitor, partial curve, poor fit]
8 | O=C(CCCCn1c(=O)c2ccccc2n(CC(=O)NC2CCCC2)c1=O)NC1CCCC1 | inactive

# Remaining list, next part

row,Compound,Potency
1,CC(C)NC(=O)NC(=O)CSc1nnc(COc2ccccc2Cl)o1,inactive
2,CCCCn1c(-c2ccncc2)nc2c1c(=O)[nH]c(=O)n2CC(C)C,"inconclusive: 1.41 µM [inhibitor, partial curve, poor fit]"
3,COc1cccc(CN2CC(C(=O)N(C)C3CCOCC3)CCC2=O)c1 (stereo unspecified),inactive
4,COc1ccc(NC(=O)CSc2ccc3nnc(CCNC(=O)c4ccccc4)n3n2)cc1OC,inactive
5,CCNC(=O)CCC(=O)Nc1cc(Cl)ccc1C,inactive
6,COCCCNC(=O)Cn1c(=O)n(CCCCCC(=O)NCc2ccc3c(c2)OCO3)c(=O)c2sccc21,"inconclusive: 1 µM [inhibitor, full curve, poor fit]"
7,CCOC(=O)C1(Cc2cccc(F)c2)CCN(Cc2nc(CC)[nH]c2C)CC1,"inconclusive: 10 µM [inhibitor, partial curve, poor fit]"
8,COc1ccccc1C(c1nnnn1C(C)(C)C)N1CCCCCC1 (stereo unspecified),inactive
9,CN(C)CCN(C(=O)c1cccc2ccccc12)c1nc2cc3c(cc2s1)OCO3,"inconclusive: 35.5 µM [inhibitor, single point]"
10,Cc1cc(NC(=O)CCC(=O)N(Cc2ccc(F)cc2)C(C(=O)NC2CCCC2)c2ccco2)no1 (stereo unspecified),inactive
11,CCCN(CCC)CCCNc1ccc(C(=O)Nc2cccc(OC)c2)cc1[N+](=O)[O-],"inconclusive: 35.5 µM [inhibitor, single point]"
12,COc1ccc(-c2noc(-c3ccc(NCc4ccco4)c([N+](=O)[O-])c3)n2)cc1,"inconclusive: 28.2 µM [activator, single point]"
13,CC=Cc1cc2ccccc2c2c(C(=O)OC)c(C(=O)OC)c(C(=O)OC(C)(C)C)n12,"inconclusive: 1.5 µM [inhibitor, partial curve, poor fit]"
14,O=C1N=c2ccccc2=C1c1c(O)n(-c2cccc(F)c2)[nH]c1=O,"inconclusive: 29.1 µM [activator, single point]"
15,Cc1ccc(CSCC(=O)NCc2ccc(F)cc2)cc1,inactive
16,COc1ccc(CN(C)C(=O)C(Cc2ccccc2)NC(=O)c2ccccc2)c(OC)c1 (stereo unspecified),"inconclusive: 35.5 µM [inhibitor, single point]"
17,CCOc1ccccc1Nc1nc(-c2cccc(Cl)c2)c2c(n1)-c1ccccc1OC2,"inconclusive: 35.5 µM [inhibitor, single point]"
18,N#C/C(=C/c1ccc(O)c(O)c1)C(=O)NCc1ccc(Cl)cc1,inactive
19,CC(=O)N1C(O)CC(C)N1c1ccccc1 (stereo unspecified),inactive
20,Cc1ccccc1-c1nc(CN2CCC(C(=O)NCCCN3CCOCC3)CC2)c(C)o1,"inconclusive: 8.2 µM [inhibitor, partial curve, poor fit]"
21,Nc1ccc(Cn2ccc3c4c(N)nc(N)nc4ccc32)cc1,"inconclusive: 0.1 µM [inhibitor, full curve, poor fit]"
22,Cc1ccc(C)c(N2N=C(C(=O)Nc3ccccc3N3CCCC3)CCC2=O)c1,"inconclusive: 2.51 µM [inhibitor, partial curve, poor fit]"
23,COc1ccc(N/C=C\C(=O)c2ccc3c(c2)OCO3)cc1,"inconclusive: 35.5 µM [inhibitor, single point]"
24,CC(=O)N1N=C(c2cccs2)CC1c1cccs1 (stereo unspecified),inactive

row,Compound,Potency
1,COC(=O)c1ccc(COc2ccc(F)cc2)o1,inactive
2,OCCNc1nc(N2CCCCC2)nc2ccccc12,"inconclusive: 10 µM [inhibitor, partial curve, poor fit]"
3,O=c1cc(Nc2ccc3c(c2)OCCO3)[nH]c(=O)n1C1CCCCC1,"inconclusive: 7.3 µM [inhibitor, partial curve]"
4,CN1CCN(S(=O)(=O)c2cccc(C(=O)N(Cc3nnc(-c4ccc(Cl)cc4)o3)C3CC3)c2)CC1,"inconclusive: 35.5 µM [inhibitor, single point]"
5,COc1ccccc1C(=O)COC(=O)CNS(=O)(=O)c1ccc(C)cc1,inactive
6,O=C(O)CSCC(=O)Nc1ccc(C(=O)O)cc1,inactive
7,COc1ccc(C(=O)Nc2ccc(Cl)cc2C(=O)NCc2ccco2)cc1OC,"inconclusive: 29.1 µM [inhibitor, single point]"
8,CN(C)c1ccc(/C=C/C(=O)c2cccc(Br)c2)cc1,inactive
9,Cc1csc(NC(=O)C2CCCCC2)n1,"inconclusive: 1.26 µM [inhibitor, single point]"
10,COc1cccc(C(=O)c2sc(NC(C)C)nc2N)c1,"inconclusive: 0.112 µM [activator, full curve, poor fit]"
11,COc1cc2c(cc1NC(=O)C(C)NCc1ccccc1)oc1ccccc12 (stereo unspecified),"inconclusive: 3.55 µM [activator, single point]"
12,COc1ccc(C(=O)N2CCC(CCC(=O)Nc3cccc(C)c3)CC2)cc1,"inconclusive: 31.6 µM [activator, single point]"
13,O=C(NCc1ccco1)c1ccc2c(c1)CCO2,inactive
14,Cn1c(CCN2CCCCC2)nc2cc(NS(=O)(=O)c3ccc(F)cc3)ccc21,"inconclusive: 16.4 µM [inhibitor, single point]"
15,COc1ccc(-n2c(C)cc(/C=N/Nc3nnc(C)n3N)c2C)cc1,"inconclusive: 8.91 µM [inhibitor, partial curve, poor fit]"
16,COC(=O)c1ccc(COc2ccccc2/C=N/NS(=O)(=O)c2ccccc2)cc1,active: 13 µM
17,O=C(COC(=O)[C@H](Cc1ccccc1)NC(=O)c1ccco1)NCc1ccccc1,"inconclusive: 23.1 µM [inhibitor, single point]"
18,CCOc1ccc2nc(-c3ccccc3)[nH]c2c1,"inconclusive: 5.17 µM [inhibitor, partial curve, poor fit]"
19,CC(C)OC(=O)c1ccc(Cn2nnc3ccccc3c2=O)cc1,"inconclusive: 20.6 µM [activator, partial curve]"
20,COc1cccc(/C(C)=N/NC(=O)c2ccc(N(C)C)cc2)c1,"inconclusive: 1.58 µM [activator, partial curve, poor fit]"
21,Cc1cc(-n2c(C)c3c(C)nnc(C)c3c2C)ccc1N,inactive
22,COC(=O)C1=C(C)N(Cc2ccco2)C(=O)N[C@@H]1c1ccc(Br)cc1,"inconclusive: 5.96 µM [inhibitor, single point]"
23,OCCN1CCN(c2nc(-c3ccccc3)nc3c2oc2ccccc23)CC1,"inconclusive: 22.4 µM [inhibitor, single point]"

# From PubChem BioAssay AID540276 (National Center for Advancing Translational Sciences (NCATS), 2011)
